Measurements published in article doi:10.1101/2024.03.04.583391 (bioRxiv, 2024).
Results are given in words; binding and its absence hold for the method and conditions named. Some results given as binding are weak or reduced against the parent protein; the word gives no strength.

The chains behind the UniProt entries cited, without tags or fusion partners. Residues count along the entry.
UniProt P08138, residues 29-427: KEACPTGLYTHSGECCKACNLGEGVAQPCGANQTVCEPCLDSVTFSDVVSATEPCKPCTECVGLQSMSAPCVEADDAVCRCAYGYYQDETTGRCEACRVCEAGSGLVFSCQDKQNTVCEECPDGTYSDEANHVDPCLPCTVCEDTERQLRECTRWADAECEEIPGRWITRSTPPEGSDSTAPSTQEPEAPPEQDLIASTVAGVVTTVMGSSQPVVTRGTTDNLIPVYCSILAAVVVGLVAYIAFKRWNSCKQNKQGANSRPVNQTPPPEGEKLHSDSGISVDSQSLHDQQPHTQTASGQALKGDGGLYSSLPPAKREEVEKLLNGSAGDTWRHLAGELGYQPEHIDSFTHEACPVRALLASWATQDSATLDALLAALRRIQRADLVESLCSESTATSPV

Target: B7-1-mCherry, on HEK293 cells (UniProt P33681)
Experiment: flow cytometry on cells

- binding: binds
Substance: p75^NTR-GFP, on HEK293 cells (from UniProt P08138 29-427) (receptor)
